± gives the standard deviation. The list shows a part of the results, in another mix than the full data. Many entries were measured with a wide error.

The subject of this assay is EfPiwi piRISC loaded with piRNA #1 (26 nt). The assay is described as follows: pre-steady-state target cleavage rate (min^-1); guide: piRNA #1 5'p-UGAGGUAGUAGGUUGUAUAGUAUCCA; MIWI and MILI are mouse PIWI proteins and EfPiwi is from a freshwater sponge; tags in brackets are library labels; higher = faster piRNA-guided slicing of the target. To be noted: auxiliary factor: 500 nM Ephydatia muelleri Gtsf1. In short, it runs like this:
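Cleave-'n-Seq used a transcribed, DNA-blocked target RNA library at 0.1 nM and active affinity-purified piRISC with one synthetic guide at 1 nM, with or without 500 nM GTSF1 partner protein, in HEPES–potassium acetate buffer at 33 °C for 0–8 or 0–960 min. Uncleaved targets were sequenced and normalised to depth and to weakly complementary targets, and three trials were pooled with k3 capped at 0.0001 min^-1. The pre-steady-state cleavage rate was estimated by a burst-and-steady-state fit.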
GGAGACCUAUCUAACAACCUACUACCUCA: the “pre-steady-state target cleavage rate” value is 0.00237 ± 0.0045.

Regarding GGAGAGCAUACUAUACAACCUACUACCUGA, the “pre-steady-state target cleavage rate” value was 0.00603 ± 0.0027.

On to GGAGACCUAACUAUUCAACGUACUACCUCA, for which the “pre-steady-state target cleavage rate” value was found to be 0.00128 ± 0.0039.

As to GGAGACCUAACUAUAGAACCUACUACCACA, the “pre-steady-state target cleavage rate” value is 0.000659 ± 0.015.

Consider GGAGACCUUACUAUACUACCAACUACCUCA, for which the “pre-steady-state target cleavage rate” value stood at 0.000257 ± 0.011.

Regarding GGAGACCUAACUAUACAACCUACUGACCUCA, the “pre-steady-state target cleavage rate” value is 0.00224 ± 0.0054.

On to GGAGACCUAACUACUACAACCUACUACCUCA, for which the “pre-steady-state target cleavage rate” value came to 0.00946 ± 0.0059.

Regarding GGAGACGAUACUAUACAAGCAACUACCUCA, the “pre-steady-state target cleavage rate” value turned out to be 0.0046 ± 0.003.

Consider GGAGACCAUUCUAUACAACCAACUACCUCA, for which the “pre-steady-state target cleavage rate” value is 0.00335 ± 0.0039.

On to GGAGACCUUACUAUACAACCUACUACUCA, for which the “pre-steady-state target cleavage rate” value worked out at 0.0025 ± 0.003.

Turning to “GGAGACCUAUGAUAUGUUCCUACUACCUCG [g2:g12:cont:t1G]”, the “pre-steady-state target cleavage rate” value worked out at 0.000292 ± 0.014.

For the sequence GGAGAGGAUACUAUAGAAGCUACUACCUCA, the “pre-steady-state target cleavage rate” value was 0.00238 ± 0.0021.

For GGAGACCUAACUAUACAACCUACUACCCA, the “pre-steady-state target cleavage rate” value worked out at 0.00326 ± 0.0026.

Turning to GGAGACCAUACAAUACAACCUACUACCACA, the “pre-steady-state target cleavage rate” value was 0.00247 ± 0.004.

Regarding “GGAGACCUUACUAUACAACCUACUUGGAGA [g7:g22:cont:t1A]”, the “pre-steady-state target cleavage rate” value was 0.00347 ± 0.0041.

As for GGAGAGGAUACAAUACAACCUACUAGCUCA, the “pre-steady-state target cleavage rate” value worked out at 0.00253 ± 0.0018.

Regarding GGAGACCUAUGAUAUGUUGCUACCUACCUCA, the “pre-steady-state target cleavage rate” value was 0.000243 ± 0.017.

In the case of GGAGACCAUACUAUACUACCUACUUCCUCA, the “pre-steady-state target cleavage rate” value came out at 0.00301 ± 0.0023.

For the sequence GGAGACCUAUCAAUACAACCUUCUACCUCA, the “pre-steady-state target cleavage rate” value came to 0.00216 ± 0.0051.

Turning to GGAGAGGAUACUAUACUACCUACAACCUCA, the “pre-steady-state target cleavage rate” value was 0.00213 ± 0.0022.

GGAGACCUAACUGAUACAACCUACUACCUCA: the “pre-steady-state target cleavage rate” value is 0.00745 ± 0.0044.

With GGAGACGAUACAAUAGAACCUACUACCUCA, the “pre-steady-state target cleavage rate” value amounted to 0.00234 ± 0.0032.

For the sequence GGAGACCUAUCUAUACAACCUACUUACCUCA, the “pre-steady-state target cleavage rate” value came out at 0.00178 ± 0.0056.
